No constants are given. Whether binding was seen depends on the method and setting. In cells and extracts the contact can be indirect. A yes stands for co-enrichment or nearness to the bait. Other partners may have been found. Where a sequence is shown, tags or fusion partners need not be part of it.
Legend:
[1] = molecular target: T1, DDB1a (Arabidopsis, UniProt Q9M0V3 1-1088); experiment: tandem affinity purification, mass spectrometry (co-purification)
T1 construct: Endogenous protein in the TAP from Arabidopsis cell cultures; also called DDB1 proteins
T1 sequence (looked up): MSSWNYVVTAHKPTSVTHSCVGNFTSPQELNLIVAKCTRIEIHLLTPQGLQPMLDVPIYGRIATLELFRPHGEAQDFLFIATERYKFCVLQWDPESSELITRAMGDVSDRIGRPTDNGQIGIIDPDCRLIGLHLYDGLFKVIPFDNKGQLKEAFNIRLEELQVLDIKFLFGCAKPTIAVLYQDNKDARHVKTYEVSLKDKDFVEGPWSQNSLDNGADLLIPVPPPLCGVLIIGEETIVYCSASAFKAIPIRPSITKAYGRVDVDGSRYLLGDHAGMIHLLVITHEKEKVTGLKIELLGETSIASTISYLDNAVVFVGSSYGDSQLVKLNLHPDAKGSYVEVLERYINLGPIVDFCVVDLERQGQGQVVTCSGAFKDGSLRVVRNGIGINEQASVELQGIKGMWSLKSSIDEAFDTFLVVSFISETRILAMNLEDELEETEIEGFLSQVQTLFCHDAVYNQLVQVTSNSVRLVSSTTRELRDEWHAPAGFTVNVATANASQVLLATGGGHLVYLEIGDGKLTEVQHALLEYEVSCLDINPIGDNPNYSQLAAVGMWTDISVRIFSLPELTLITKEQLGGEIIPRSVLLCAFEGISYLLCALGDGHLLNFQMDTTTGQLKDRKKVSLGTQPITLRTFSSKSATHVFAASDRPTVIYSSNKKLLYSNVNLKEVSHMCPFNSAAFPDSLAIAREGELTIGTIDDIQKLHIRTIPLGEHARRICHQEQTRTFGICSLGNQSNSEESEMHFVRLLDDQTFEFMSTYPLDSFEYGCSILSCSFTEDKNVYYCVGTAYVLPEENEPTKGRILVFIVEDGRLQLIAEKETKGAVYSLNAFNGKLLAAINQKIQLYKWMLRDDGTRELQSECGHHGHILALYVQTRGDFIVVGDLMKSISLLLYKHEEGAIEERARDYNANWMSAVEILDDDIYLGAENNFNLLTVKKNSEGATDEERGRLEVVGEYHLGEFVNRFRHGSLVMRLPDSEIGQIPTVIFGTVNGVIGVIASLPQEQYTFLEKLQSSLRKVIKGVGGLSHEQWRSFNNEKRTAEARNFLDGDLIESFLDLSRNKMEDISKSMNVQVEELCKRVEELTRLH

[2] = molecular target: T2, DDB1b (Arabidopsis, UniProt O49552 1-1088); experiment: as above
T2 construct: Endogenous protein in the TAP; also called DDB1 proteins
T2 sequence (looked up): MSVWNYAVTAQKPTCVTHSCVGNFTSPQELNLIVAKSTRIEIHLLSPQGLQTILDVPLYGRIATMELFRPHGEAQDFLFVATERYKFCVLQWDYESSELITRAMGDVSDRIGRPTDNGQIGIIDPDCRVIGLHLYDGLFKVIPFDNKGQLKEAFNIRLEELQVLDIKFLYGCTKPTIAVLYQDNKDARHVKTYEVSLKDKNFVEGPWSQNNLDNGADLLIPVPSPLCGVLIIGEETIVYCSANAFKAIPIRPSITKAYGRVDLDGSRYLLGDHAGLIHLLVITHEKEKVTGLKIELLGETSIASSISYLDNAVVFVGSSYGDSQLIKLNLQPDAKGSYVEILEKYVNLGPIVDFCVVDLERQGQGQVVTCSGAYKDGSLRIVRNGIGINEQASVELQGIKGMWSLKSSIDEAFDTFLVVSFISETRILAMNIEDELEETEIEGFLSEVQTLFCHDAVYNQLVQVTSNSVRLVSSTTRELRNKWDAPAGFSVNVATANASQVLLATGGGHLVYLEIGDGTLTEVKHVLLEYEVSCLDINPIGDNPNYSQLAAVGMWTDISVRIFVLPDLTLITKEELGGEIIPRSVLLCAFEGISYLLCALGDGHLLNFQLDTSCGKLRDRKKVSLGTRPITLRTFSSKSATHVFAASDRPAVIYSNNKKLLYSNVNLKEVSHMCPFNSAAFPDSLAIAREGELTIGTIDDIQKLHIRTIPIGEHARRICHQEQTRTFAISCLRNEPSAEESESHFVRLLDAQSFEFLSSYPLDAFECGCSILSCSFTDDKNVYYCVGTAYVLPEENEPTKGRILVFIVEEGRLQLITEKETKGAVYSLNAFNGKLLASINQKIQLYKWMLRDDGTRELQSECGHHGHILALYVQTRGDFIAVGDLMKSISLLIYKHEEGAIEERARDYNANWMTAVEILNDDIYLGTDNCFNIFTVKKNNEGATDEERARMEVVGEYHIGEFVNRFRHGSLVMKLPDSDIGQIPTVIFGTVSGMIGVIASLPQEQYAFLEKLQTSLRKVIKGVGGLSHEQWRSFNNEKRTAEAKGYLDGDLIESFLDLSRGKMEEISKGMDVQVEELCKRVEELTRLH

[3] = molecular target: T1, DDB1a; experiment: tandem affinity purification from Arabidopsis cell cultures, mass spectrometry (co-purification)
[4] = molecular target: T2, DDB1b; experiment: as above

Measured: binding

B1: C-terminal TAP-tagged DDA1 (GS-tagged DDA1 fusion) (protein, not shown: small tags and cut ends)
chain: MASILGDLPSFDPHNFSQHRPSDPSNPSKMVPTTYRPTHNRTLPPPDQVITTEVKNILIRSFYQRAEEKLRPKRPATDHLAAEHVNKHFRAASSSSSTQGL
binds: [1] | [2] | [3] | [4]

Source: patent publication US20160102316A1, “STRESS TOLERANT PLANTS” (CONSEJO SUPERIOR DE INVESTIGACIONES CIENTIFICAS(CSIC), priority 2013, published 2016)
